Results are given in words; binding and its absence hold for the method and conditions named. Binding seen in cells or lysates may run through a third protein. For part of these data: Binding can be weak; no strength is given. For part of these data: Where a sequence is shown, tags or fusion partners need not be part of it.

Protein sequences, listed by entry. Tags and fused reporters are not part of them. Lines headed by an entry give the natural chain unless they say otherwise; changes in a name come on top.
UniProt P05205: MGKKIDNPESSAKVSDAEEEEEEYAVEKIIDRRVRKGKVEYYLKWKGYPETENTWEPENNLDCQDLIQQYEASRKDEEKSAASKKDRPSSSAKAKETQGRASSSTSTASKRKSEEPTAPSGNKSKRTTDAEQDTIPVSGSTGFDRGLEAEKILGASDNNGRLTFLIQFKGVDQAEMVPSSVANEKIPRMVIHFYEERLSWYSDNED
UniProt Q7JUZ7: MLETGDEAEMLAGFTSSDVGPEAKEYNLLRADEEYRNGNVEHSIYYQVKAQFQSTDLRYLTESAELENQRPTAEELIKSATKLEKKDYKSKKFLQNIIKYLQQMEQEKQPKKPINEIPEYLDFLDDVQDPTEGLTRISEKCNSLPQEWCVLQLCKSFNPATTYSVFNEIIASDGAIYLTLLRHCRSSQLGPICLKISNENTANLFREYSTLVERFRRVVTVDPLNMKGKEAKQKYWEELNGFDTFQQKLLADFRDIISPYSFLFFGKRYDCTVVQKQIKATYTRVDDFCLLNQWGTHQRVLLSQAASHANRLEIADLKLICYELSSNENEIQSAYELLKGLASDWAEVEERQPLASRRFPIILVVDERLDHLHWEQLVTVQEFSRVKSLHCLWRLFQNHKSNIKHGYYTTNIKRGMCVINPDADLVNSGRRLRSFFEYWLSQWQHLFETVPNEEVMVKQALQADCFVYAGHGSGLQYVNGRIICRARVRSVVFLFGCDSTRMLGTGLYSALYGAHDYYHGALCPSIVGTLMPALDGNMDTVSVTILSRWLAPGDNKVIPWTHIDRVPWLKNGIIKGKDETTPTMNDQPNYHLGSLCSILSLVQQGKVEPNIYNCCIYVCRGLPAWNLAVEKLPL

In one assay the target is T1, GST-Moi (Drosophila) (UniProt B7Z0L8).
T1 sequence: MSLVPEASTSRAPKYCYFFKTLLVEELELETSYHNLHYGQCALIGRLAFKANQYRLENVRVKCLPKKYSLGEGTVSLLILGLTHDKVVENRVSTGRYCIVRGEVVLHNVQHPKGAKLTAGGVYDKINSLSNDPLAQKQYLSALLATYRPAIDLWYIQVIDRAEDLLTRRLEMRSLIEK
Nature of the assay: pull-down; 2 ug GST fusion protein bound to sepharose beads incubated with extracts of ~50 larval brains expressing HA-Sse, 1 h at 4 °C; 20 mM Hepes KOH, 20 mM NaF, 0.8% NP40; only the target purified.

The target of a further assay is T2, GST-Ver (Drosophila) (UniProt Q9VTZ2).
T2 sequence: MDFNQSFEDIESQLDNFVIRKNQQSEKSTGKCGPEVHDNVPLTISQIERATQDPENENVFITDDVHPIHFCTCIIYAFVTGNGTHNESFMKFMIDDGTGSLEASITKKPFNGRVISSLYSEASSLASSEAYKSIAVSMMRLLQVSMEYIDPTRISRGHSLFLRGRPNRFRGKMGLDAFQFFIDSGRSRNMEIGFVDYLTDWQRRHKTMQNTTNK
The description is as above.

The target of a further assay is T3, GST-Peo (Drosophila) (UniProt Q7K4V4).
T3 sequence: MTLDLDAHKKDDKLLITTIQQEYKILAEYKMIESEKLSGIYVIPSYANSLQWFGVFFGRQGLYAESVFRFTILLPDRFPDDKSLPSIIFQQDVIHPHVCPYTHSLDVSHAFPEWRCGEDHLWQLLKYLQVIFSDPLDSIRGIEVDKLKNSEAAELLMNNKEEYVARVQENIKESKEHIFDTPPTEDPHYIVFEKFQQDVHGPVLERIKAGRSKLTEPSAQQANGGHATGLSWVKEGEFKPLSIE
Described as above.

Another assay addresses T4, GST-HOAP (Drosophila) (UniProt Q95RV2).
T4 sequence: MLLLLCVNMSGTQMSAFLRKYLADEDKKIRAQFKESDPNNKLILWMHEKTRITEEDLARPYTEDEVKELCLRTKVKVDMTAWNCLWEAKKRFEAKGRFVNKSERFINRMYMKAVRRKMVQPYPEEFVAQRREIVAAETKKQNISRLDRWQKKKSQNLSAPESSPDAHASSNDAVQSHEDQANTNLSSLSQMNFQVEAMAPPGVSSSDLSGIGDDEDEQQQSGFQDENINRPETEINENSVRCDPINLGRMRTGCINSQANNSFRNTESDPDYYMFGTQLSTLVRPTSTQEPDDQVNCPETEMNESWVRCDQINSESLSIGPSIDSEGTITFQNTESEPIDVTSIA
The assay is described as above.

The next assay deals with T5, Moi-HA (Drosophila) (UniProt B7Z0L8).
T5 sequence: T1 sequence
The assay is described as follows: co-IP; extracts of S2 cells co-expressing tagged Sse and a tagged telomeric protein; anti-FLAG affinity gel or anti-HA affinity matrix, 2 h at 4 °C; lysis buffer 50 mM Tris HCl pH 7.8, 150 mM NaCl, 0.1% NP 40, 1% Triton.

In another assay the target is HP1-HA (Drosophila) (UniProt P05205). Described as above.
The target in a further assay is T6, FLAG-HipHop (Drosophila) (UniProt Q7JWP6).
T6 sequence: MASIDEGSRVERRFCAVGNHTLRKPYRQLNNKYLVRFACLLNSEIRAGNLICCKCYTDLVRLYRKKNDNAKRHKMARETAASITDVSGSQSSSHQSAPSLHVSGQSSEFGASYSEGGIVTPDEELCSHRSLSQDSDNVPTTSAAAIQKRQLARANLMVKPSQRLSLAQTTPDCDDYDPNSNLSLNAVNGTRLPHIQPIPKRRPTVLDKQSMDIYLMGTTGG
Described as above.

In the next assay the target is T7, Ver-FLAG (Drosophila) (UniProt Q9VTZ2).
T7 sequence: T2 sequence
The description is as above.

In another assay the target is T8, HOAP-FLAG (Drosophila) (UniProt Q95RV2).
T8 sequence: T4 sequence
The description is as above.

Take 6HA-Sse (Drosophila): the binding entry is listed as “binds” in the assay with GST-Moi (Drosophila), “binds” with GST-Ver (Drosophila), “no binding” with GST-Peo (Drosophila) and “binds” with GST-HOAP (Drosophila).

Regarding FLAG-Sse (from UniProt Q7JUZ7), the binding entry with Moi-HA (Drosophila) and with HP1-HA (Drosophila) was “binds” throughout.

HA-Sse (from UniProt Q7JUZ7): the binding entry with FLAG-HipHop (Drosophila), with Ver-FLAG (Drosophila) and with HOAP-FLAG (Drosophila) was “binds” in each case.

The record behind these values is publication PMC4735636.
